Measurements: article PMC6065395
These are yes or no findings as the source states them, for the method shown. Binding seen in cells or lysates may run through a third protein. Binding can be weak; no strength is given.

By UniProt entry, the sequences of proteins in these tests, tags left out. Where a name states a change or a piece, a line headed by the entry shows the natural chain unless it says otherwise.
UniProt Q5BBF4: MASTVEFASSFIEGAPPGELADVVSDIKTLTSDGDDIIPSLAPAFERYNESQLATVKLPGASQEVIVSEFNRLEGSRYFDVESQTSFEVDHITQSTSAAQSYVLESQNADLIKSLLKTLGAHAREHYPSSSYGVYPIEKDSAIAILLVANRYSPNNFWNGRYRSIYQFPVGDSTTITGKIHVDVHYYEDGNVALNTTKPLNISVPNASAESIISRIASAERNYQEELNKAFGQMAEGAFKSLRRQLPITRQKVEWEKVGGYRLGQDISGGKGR
UniProt P45444: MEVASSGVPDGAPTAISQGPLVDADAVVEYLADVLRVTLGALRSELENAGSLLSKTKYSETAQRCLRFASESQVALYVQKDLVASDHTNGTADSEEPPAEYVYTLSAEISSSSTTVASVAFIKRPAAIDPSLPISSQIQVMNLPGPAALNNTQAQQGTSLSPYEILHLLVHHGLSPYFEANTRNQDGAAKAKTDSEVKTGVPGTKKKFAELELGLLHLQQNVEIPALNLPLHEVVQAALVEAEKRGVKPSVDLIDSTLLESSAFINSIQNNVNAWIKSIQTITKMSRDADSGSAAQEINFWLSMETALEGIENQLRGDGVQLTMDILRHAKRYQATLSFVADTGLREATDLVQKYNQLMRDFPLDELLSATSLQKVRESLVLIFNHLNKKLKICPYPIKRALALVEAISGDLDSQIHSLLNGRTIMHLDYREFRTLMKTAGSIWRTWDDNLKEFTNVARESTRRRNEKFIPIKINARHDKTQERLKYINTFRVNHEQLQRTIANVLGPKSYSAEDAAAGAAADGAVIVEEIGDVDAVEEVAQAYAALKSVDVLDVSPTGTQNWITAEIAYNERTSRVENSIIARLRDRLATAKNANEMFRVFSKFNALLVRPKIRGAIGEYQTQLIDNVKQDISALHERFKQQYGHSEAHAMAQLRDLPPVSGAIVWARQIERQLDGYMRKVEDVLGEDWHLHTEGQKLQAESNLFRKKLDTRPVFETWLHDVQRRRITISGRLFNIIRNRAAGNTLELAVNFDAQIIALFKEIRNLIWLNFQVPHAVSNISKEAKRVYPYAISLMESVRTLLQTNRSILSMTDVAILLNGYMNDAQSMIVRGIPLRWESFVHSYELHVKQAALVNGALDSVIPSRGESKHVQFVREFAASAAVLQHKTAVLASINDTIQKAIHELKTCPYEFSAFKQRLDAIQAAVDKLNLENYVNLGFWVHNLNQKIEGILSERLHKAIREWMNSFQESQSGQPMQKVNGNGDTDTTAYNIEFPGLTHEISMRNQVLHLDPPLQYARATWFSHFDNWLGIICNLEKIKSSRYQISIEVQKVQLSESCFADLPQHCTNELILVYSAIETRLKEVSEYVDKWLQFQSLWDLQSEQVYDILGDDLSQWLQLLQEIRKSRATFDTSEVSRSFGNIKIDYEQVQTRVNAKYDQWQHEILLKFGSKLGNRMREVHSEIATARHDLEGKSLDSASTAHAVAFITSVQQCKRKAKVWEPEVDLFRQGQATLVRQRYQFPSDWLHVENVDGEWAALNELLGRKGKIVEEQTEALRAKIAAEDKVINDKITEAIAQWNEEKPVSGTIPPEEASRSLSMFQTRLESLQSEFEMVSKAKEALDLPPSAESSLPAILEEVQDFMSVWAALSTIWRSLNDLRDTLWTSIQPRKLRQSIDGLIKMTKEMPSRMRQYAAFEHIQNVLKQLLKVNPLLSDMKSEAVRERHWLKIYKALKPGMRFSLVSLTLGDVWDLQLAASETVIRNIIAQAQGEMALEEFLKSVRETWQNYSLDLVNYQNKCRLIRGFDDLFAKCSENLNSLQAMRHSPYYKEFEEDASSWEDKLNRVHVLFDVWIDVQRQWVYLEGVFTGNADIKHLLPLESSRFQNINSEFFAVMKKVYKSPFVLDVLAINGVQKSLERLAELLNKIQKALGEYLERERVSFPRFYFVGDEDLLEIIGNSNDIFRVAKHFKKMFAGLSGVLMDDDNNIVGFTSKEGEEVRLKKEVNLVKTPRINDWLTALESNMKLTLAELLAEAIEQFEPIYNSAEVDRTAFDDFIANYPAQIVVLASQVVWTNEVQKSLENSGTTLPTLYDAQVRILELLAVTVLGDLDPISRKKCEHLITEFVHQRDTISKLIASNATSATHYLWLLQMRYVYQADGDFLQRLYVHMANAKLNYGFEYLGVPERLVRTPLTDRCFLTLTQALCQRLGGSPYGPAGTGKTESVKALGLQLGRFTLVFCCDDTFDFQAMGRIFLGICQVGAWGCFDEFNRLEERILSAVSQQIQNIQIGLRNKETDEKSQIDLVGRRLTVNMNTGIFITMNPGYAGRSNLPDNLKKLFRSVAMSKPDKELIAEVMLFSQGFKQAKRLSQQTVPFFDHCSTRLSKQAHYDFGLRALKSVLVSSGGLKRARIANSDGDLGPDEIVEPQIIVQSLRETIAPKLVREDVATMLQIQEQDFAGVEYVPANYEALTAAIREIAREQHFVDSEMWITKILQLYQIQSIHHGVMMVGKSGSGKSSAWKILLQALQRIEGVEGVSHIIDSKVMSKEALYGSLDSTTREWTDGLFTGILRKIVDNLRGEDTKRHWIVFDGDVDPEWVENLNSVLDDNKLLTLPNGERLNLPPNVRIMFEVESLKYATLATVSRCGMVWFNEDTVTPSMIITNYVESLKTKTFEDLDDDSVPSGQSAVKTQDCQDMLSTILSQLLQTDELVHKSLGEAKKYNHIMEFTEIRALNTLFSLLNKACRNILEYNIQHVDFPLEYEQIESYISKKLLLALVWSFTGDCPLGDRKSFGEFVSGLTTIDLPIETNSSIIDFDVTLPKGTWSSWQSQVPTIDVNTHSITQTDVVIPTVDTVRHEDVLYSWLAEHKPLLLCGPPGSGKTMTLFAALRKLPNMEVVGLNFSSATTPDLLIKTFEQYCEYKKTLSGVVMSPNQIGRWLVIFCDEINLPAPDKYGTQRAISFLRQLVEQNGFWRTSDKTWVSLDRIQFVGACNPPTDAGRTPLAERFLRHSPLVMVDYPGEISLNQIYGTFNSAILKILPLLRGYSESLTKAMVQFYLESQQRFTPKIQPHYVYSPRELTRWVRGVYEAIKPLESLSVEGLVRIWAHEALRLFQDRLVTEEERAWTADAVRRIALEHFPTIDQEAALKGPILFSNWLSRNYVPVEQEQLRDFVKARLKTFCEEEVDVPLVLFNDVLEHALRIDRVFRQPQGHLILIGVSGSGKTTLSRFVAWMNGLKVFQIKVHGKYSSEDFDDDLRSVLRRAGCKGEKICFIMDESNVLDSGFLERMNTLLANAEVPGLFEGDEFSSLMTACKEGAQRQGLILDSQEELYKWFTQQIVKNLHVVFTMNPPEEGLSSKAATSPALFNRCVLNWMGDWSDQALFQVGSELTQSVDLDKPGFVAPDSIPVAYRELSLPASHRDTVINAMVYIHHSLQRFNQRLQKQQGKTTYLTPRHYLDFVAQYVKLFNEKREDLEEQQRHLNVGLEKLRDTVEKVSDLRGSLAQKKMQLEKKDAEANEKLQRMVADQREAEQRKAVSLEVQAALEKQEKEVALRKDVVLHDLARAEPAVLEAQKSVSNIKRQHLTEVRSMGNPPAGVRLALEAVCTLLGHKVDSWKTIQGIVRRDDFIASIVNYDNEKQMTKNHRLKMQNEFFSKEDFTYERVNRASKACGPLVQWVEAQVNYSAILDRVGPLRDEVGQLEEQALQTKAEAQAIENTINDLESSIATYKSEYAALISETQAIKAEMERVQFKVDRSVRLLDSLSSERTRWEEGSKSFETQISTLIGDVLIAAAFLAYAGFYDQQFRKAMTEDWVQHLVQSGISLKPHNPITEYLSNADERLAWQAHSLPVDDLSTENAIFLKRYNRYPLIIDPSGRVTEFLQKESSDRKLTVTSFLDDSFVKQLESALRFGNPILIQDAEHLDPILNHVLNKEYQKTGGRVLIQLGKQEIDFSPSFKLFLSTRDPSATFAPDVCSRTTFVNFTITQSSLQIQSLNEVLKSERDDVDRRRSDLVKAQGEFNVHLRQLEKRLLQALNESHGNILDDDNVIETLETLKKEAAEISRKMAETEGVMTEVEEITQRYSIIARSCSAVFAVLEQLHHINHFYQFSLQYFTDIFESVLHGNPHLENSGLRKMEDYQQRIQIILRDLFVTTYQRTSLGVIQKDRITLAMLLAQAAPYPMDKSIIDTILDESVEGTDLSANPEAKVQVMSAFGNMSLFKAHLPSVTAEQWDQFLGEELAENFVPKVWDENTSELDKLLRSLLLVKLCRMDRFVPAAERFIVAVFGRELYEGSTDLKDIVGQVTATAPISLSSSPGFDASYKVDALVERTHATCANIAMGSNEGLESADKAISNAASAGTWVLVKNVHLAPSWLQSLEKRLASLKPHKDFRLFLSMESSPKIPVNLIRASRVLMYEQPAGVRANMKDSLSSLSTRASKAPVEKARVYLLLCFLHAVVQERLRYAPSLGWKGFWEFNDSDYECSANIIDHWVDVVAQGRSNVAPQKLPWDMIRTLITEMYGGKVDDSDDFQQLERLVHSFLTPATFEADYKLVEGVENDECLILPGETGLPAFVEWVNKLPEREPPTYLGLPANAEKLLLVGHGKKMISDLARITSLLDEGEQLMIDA
UniProt Q5BBX7: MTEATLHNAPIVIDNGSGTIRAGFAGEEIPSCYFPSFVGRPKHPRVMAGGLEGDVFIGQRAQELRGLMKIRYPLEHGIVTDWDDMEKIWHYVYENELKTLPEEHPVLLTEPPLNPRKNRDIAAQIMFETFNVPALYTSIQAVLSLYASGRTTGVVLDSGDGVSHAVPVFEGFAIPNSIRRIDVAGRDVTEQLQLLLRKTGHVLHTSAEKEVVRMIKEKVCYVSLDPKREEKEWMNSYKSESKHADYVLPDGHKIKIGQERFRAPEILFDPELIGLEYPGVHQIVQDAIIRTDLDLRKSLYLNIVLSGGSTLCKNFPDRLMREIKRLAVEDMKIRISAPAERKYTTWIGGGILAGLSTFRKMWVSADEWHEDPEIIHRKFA

Target: CapA-GFP fusion (A. nidulans) (UniProt Q5BBF4)
Test: co-IP; CapA-GFP held on anti-GFP MicroBeads from cell extract; western blots with antibodies against p150, Arp1 and dynein HC; strain without GFP tag as negative control

binding	Substance
binds	dynein heavy chain (HC) (from UniProt P45444 1-4345)
binds	Arp1 (actin-related protein 1) (from UniProt Q5BBX7)
